In patent publication US20060159639A1, “Pseudo body odor composition and perfume composition for inhibiting body odor” (priority 2003, published 2006):

test: Perfume (odor) quality of armpit odor components; conditions: odor quality in words

SMILES | Perfume quality
CCC/C(C)=C\C(=O)O [cis-3-methyl-2-hexenoic acid] | Acidic odor
CCC[C@](C)(O)CC(=O)O [(S)-3-hydroxy-3-methylhexanoic acid] | cumin spice like odor; also recorded: Armpit odor like and
CCC[C@@](C)(O)CC(=O)O [(R)-3-hydroxy-3-methylhexanoic acid] | Cumin spice like odor; also recorded: weaker than racemic body
CCCC(C)(O)CC(=O)O (stereo not shown) [3-hydroxy-3-methylhexanoic acid] | Strong armpit like and; also recorded: cumin spice like odor
CCCC(C)(O)CC(=O)O (racemic) [3-hydroxy-3-methylhexanoic acid (racemic body), 3-hydroxy-3-methylhexanoic acid] | Cumin spice like odor; also recorded: like an armpit odor; also recorded: weaker than an S-body
CCCC(C)=CC(=O)O [3-methyl-2-hexenoic acid (trans-isomer/cis-isomer = 1/1), 3-methyl-2-hexenoic acid] | Acidic odor stronger than
CCC/C(C)=C/C(=O)O [trans-3-methyl-2-hexenoic acid] | Acidic odor

Entries after “also recorded” stand apart in the source; their conditions may differ.
